Reference: patent publication EP0861891A1, “Compounds for modulating cell negative regulations and biological applications thereof” (INSTITUT NATIONAL DE LA SANTE ET DE LA RECHERCHE MEDICALE …, priority 1996, dated 1998)
At least one peptide structure holds a part that was inferred or is arguable (an end, a ring closure or a residue). Where a SMILES comes first, the peptide text is derived from it.

Sequences of proteins named here, by UniProt entry; tags and fusion partners are left off. A change or cut given only in a name is not applied to a line headed by its entry.
UniProt P81718: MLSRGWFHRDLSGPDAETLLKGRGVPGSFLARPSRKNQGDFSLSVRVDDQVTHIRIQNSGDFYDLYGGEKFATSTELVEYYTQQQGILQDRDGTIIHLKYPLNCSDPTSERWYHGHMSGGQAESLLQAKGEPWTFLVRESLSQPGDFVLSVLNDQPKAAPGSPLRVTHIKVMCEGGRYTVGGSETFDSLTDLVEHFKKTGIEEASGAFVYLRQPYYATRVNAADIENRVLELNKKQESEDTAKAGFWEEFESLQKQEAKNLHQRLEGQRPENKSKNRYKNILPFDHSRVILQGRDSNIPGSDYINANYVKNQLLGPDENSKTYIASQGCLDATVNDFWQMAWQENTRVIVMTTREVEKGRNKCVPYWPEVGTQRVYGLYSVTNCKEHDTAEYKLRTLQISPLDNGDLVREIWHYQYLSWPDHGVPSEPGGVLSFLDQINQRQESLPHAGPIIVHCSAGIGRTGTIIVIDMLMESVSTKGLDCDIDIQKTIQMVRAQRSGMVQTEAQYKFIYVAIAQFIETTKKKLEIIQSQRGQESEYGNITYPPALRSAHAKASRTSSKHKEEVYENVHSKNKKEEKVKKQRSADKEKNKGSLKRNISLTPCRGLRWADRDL

Tests used:
Assay type in all cases: binding
Conditions in all cases: RBL-2H3 cell lysate adsorbed to peptide-coated beads
SHP-1 = target: T1, SHP-1 (Rattus norvegicus, UniProt P81718); test: Cell lysate adsorption to peptides, SHP-1 immunoblot
T1 construct: RBL-2H3 cells were lysed in NP-40 lysis buffer; endogenous in cells; host or cells: RBL-2H3

SHP-2 = target: T2, SHP-2 (Rattus norvegicus, UniProt P41499); test: Cell lysate adsorption to peptides, SHP-2 immunoblot
T2 construct: RBL-2H3 cells were lysed in NP-40 lysis buffer; endogenous in cells; host or cells: RBL-2H3
T2 sequence (P41499 1-593): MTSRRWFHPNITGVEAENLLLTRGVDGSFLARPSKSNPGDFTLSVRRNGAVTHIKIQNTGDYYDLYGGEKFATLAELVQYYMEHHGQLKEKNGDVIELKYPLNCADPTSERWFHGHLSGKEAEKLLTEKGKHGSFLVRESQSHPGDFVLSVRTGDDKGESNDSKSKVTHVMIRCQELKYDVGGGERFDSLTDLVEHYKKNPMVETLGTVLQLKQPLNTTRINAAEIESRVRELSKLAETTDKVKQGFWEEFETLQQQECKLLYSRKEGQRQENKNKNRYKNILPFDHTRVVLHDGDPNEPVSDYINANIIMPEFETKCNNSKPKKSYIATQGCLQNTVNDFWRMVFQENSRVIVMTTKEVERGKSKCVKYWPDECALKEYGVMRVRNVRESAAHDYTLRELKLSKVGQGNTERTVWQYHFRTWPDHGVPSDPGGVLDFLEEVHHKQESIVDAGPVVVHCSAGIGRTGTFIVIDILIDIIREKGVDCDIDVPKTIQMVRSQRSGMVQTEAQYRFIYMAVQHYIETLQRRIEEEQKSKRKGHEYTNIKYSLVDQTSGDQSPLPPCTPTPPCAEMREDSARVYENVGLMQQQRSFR

SHIP = target: T3, SHIP (Rattus norvegicus, UniProt P97573); test: Cell lysate adsorption to peptides, SHIP immunoblot
T3 construct: RBL-2H3 cells were lysed in NP-40 lysis buffer; endogenous in cells; host or cells: RBL-2H3
T3 sequence (P97573 1-1190): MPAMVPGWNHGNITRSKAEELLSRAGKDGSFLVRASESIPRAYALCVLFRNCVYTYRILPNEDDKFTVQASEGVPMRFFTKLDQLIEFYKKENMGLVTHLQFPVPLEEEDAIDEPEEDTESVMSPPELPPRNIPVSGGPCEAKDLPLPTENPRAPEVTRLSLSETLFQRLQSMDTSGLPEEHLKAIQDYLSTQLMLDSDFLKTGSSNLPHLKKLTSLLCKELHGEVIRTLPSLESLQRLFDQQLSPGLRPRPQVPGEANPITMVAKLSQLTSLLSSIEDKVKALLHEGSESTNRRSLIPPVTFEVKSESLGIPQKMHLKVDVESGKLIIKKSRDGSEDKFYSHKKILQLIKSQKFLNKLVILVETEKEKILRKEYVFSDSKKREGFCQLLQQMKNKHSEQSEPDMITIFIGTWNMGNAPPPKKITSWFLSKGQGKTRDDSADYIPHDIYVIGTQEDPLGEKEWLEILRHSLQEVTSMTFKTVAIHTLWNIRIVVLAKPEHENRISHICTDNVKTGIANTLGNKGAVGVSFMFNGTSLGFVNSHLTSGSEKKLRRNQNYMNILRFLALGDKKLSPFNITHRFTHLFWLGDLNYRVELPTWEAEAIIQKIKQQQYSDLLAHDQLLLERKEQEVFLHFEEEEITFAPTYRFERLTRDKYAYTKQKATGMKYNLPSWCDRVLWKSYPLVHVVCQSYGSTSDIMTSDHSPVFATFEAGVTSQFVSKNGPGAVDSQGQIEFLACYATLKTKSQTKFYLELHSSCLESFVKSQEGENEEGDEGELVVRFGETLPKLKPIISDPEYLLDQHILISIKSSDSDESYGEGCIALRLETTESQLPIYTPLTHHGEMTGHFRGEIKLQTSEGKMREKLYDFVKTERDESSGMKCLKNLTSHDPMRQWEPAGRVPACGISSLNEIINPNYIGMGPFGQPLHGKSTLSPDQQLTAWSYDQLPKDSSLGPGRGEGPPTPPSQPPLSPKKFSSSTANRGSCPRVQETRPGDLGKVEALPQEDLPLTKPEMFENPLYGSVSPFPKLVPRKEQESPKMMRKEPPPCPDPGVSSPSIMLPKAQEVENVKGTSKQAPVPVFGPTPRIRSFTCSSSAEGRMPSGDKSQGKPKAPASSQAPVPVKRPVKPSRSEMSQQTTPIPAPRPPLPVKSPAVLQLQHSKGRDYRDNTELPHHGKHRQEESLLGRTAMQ

| SMILES | binding of SHP-1 (SHP-1) | binding of SHP-2 (SHP-2) | binding of SHIP (SHIP) |
| --- | --- | --- | --- |
| CC(C)C[C@H](NC(=O)[C@H](CC(C)C)NC(=O)[C@H](CO)NC(=O)[C@H](Cc1ccc(OP(=O)(O)O)cc1)NC(=O)[C@@H](NC(=O)[C@H](C)NC(=O)[C@@H](NC(=O)[C@H](CC(N)=O)NC(=O)[C@H](CCC(=O)O)NC(=O)[C@H](C)NC(=O)[C@H](CCC(=O)O)NC(=O)[C@@H](NC(=O)[C@H](CCCCN)NC(=O)CCCC[C@@H]1SC[C@@H]2NC(=O)N[C@@H]21)[C@@H](C)O)[C@@H](C)O)[C@@H](C)O)C(=O)N[C@@H](CCCCN)C(=O)O [FcγRIIB 1-I260A, KTEAENTATY262SLLK] (HELM PEPTIDE1{[O=C1N[C@H]2[C@H](CS[C@H]2CCCCC(=O)[*:2])N1].K.T.E.A.E.N.T.A.T.[O=C([C@H](Cc1ccc(OP(=O)(O)O)cc1)N[*:1])[*:2]].S.L.L.K}$$$$V2.0) | abolishes the binding | abolishes the binding | not affected |
| CC[C@H](C)[C@H](NC(=O)[C@@H](NC(=O)[C@H](CC(N)=O)NC(=O)[C@H](CCC(=O)O)NC(=O)[C@H](C)NC(=O)[C@H](CCC(=O)O)NC(=O)[C@@H](NC(=O)[C@H](CCCCN)NC(=O)CCCC[C@@H]1SC[C@@H]2NC(=O)N[C@@H]21)[C@@H](C)O)[C@@H](C)O)C(=O)N[C@H](C(=O)N[C@@H](Cc1ccc(OP(=O)(O)O)cc1)C(=O)N[C@@H](CO)C(=O)N[C@@H](CC(C)C)C(=O)N[C@@H](CC(C)C)C(=O)N[C@@H](CCCCN)C(=O)O)[C@@H](C)O [FcγRIIB ITIM, KTEAENTITY262SLLK] (HELM PEPTIDE1{[O=C1N[C@H]2[C@H](CS[C@H]2CCCCC(=O)[*:2])N1].K.T.E.A.E.N.T.I.T.[O=C([C@H](Cc1ccc(OP(=O)(O)O)cc1)N[*:1])[*:2]].S.L.L.K}$$$$V2.0) | recruit | recruit | recruit |
| CC(C)C[C@H](NC(=O)[C@H](CCC(N)=O)NC(=O)[C@H](C)NC(=O)[C@H](Cc1ccc(OP(=O)(O)O)cc1)NC(=O)[C@@H](NC(=O)[C@H](C)NC(=O)[C@H](CCC(=O)O)NC(=O)[C@H](CCC(N)=O)NC(=O)[C@@H]1CCCN1C(=O)[C@H](CC(=O)O)NC(=O)[C@H](CCC(N)=O)NC(=O)[C@H](CCC(=O)O)NC(=O)[C@H](CC(=O)O)NC(=O)CCCC[C@@H]1SC[C@@H]2NC(=O)N[C@@H]21)[C@@H](C)O)C(=O)N[C@@H](CC(N)=O)C(=O)N[C@@H](Cc1c[nH]cn1)C(=O)O [p58.2.1-V301A, DEQDPQEATY303AQLNH] (HELM PEPTIDE1{[O=C1N[C@H]2[C@H](CS[C@H]2CCCCC(=O)[*:2])N1].D.E.Q.D.P.Q.E.A.T.[O=C([C@H](Cc1ccc(OP(=O)(O)O)cc1)N[*:1])[*:2]].A.Q.L.N.H}$$$$V2.0) | abolishes the binding | abolishes the binding |  |
